From the supplement of paper PMC10849652
This is one part of the list.

Sequences of proteins named here, by UniProt entry; tags and fusion partners are left off. A change or cut given only in a name is not applied to a line headed by its entry.
UniProt P68402: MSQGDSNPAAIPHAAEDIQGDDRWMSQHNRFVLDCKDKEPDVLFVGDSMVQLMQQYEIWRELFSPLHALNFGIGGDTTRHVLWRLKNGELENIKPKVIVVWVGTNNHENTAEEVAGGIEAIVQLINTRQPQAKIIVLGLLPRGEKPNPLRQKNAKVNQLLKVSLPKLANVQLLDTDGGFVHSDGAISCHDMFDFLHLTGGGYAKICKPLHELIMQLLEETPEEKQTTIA
UniProt Q9HBH1: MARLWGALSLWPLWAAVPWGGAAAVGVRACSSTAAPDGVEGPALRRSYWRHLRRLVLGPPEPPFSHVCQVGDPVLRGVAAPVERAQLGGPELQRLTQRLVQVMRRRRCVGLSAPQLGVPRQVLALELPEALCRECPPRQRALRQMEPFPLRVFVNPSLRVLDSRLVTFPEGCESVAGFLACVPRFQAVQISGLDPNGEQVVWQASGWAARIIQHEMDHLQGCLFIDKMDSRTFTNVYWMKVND
UniProt Q96KB5: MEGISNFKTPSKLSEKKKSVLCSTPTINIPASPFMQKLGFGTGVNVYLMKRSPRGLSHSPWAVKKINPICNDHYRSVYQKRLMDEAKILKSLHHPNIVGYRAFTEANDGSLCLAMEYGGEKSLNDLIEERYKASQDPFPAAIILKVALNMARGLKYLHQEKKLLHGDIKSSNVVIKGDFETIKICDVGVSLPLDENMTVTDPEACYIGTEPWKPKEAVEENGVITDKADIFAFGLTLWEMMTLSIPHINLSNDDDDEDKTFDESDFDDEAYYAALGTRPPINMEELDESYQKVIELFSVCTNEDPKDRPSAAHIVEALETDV
UniProt P56645: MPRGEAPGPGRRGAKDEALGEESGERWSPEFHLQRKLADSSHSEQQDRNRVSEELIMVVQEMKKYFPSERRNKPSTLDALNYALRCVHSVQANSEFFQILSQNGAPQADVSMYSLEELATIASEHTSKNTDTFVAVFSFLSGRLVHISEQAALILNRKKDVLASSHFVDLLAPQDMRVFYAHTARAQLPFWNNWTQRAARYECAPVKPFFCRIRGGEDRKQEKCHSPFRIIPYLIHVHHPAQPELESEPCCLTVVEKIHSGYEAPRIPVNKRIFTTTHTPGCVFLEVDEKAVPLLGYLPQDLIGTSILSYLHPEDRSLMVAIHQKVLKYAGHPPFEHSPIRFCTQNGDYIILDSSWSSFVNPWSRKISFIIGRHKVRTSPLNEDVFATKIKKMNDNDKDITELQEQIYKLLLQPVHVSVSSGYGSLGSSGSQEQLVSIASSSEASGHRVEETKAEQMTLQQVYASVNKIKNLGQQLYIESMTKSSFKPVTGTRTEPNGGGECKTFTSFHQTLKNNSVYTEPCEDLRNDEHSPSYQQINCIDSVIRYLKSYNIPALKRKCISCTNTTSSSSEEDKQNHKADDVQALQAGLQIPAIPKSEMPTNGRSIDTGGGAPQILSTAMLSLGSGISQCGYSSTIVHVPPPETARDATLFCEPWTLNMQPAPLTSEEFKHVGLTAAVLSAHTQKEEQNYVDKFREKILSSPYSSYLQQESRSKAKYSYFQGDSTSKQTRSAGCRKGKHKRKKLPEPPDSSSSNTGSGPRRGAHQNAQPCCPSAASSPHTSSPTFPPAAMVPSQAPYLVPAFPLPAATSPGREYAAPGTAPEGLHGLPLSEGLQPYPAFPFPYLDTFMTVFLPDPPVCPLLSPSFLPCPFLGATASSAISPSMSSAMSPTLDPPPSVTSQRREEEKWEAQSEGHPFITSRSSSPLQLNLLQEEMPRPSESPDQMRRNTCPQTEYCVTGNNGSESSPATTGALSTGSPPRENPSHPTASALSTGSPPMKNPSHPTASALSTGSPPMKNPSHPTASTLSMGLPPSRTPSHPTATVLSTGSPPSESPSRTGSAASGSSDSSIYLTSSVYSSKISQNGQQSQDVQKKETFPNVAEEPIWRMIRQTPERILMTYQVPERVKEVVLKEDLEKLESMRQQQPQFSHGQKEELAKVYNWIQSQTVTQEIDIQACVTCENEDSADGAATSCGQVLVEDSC
UniProt Q7L3T8: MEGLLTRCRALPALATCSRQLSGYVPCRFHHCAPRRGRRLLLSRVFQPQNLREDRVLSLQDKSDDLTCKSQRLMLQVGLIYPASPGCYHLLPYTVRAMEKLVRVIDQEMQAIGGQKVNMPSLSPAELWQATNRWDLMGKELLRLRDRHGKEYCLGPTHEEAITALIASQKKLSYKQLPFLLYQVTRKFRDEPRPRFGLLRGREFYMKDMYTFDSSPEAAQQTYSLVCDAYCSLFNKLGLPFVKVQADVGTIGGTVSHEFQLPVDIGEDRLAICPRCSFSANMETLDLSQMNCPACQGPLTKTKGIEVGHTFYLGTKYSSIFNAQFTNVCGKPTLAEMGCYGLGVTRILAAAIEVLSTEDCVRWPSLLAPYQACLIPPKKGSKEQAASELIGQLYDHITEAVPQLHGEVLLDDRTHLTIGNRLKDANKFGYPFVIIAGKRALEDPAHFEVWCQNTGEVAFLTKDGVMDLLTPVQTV
UniProt Q9BYG5: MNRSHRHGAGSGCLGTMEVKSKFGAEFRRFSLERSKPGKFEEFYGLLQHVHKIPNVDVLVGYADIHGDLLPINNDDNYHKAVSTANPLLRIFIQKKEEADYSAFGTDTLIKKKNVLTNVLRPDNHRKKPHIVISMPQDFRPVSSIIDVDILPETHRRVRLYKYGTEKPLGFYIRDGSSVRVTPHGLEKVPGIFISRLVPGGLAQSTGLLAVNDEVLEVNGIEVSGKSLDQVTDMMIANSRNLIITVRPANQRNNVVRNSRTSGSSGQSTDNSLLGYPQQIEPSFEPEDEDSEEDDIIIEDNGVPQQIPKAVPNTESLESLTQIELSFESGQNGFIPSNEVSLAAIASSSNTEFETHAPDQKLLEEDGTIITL
UniProt O43252: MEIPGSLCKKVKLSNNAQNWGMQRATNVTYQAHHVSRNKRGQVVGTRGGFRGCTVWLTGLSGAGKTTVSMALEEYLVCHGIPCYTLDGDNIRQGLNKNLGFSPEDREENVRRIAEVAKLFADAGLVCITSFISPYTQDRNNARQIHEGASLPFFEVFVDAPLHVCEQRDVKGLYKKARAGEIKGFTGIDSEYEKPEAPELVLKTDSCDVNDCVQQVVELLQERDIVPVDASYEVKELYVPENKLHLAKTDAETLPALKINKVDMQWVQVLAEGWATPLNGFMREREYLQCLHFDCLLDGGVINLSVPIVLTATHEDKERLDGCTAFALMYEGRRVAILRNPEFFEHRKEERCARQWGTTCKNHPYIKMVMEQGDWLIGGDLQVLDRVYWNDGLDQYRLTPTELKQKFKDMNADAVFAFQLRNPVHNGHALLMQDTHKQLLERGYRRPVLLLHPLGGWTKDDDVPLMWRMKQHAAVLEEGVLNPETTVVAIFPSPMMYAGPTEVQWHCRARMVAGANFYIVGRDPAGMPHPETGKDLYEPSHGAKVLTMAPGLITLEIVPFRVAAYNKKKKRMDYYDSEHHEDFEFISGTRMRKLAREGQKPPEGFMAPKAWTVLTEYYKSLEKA
UniProt Q9UNF0: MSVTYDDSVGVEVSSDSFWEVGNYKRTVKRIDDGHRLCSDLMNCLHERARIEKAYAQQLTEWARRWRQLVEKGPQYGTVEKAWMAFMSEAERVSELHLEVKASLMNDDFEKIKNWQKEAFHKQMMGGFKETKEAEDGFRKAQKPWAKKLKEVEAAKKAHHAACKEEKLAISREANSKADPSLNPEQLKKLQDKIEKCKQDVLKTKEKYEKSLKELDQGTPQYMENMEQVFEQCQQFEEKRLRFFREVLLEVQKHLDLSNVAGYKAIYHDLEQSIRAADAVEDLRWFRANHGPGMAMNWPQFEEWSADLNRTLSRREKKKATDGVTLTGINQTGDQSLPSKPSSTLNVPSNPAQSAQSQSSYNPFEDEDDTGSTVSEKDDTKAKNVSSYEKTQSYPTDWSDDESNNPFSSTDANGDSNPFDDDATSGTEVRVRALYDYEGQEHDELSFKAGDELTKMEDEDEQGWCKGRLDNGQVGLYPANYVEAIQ
UniProt P30039: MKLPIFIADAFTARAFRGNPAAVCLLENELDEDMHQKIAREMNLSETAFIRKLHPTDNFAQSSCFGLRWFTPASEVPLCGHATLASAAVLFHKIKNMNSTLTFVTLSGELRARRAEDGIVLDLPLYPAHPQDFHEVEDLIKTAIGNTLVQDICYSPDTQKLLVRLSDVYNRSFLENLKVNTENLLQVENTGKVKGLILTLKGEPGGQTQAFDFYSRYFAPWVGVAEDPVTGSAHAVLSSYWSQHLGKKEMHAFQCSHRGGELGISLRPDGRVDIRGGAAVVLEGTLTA
UniProt P43034: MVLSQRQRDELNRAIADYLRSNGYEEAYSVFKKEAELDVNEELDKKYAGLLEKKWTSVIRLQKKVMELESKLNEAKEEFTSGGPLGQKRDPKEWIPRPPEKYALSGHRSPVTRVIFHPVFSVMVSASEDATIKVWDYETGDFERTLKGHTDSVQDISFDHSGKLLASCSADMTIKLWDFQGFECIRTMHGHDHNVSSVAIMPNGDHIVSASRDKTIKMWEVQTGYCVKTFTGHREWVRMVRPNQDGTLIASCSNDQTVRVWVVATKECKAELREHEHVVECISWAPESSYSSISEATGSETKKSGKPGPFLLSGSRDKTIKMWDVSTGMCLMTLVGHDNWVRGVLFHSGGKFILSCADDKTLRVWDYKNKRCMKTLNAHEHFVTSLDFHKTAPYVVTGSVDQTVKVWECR
UniProt Q16822, whole entry, looked up: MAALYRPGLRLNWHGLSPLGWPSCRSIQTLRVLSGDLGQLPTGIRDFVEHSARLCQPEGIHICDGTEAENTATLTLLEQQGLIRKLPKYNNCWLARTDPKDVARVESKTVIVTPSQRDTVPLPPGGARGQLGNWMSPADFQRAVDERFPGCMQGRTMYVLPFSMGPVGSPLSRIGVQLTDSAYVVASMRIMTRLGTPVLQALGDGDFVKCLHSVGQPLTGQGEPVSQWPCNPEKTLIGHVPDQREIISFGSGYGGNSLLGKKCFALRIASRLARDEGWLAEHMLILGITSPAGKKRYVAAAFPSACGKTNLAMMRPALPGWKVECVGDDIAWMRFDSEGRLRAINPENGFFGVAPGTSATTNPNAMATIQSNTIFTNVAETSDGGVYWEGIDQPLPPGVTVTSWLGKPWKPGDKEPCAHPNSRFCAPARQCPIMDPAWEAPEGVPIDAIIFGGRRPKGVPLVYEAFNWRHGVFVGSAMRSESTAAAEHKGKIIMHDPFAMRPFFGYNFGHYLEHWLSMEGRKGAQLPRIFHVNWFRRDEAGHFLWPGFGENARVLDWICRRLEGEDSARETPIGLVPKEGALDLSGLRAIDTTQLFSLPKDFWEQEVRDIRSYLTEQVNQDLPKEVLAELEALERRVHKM
UniProt Q86TB9: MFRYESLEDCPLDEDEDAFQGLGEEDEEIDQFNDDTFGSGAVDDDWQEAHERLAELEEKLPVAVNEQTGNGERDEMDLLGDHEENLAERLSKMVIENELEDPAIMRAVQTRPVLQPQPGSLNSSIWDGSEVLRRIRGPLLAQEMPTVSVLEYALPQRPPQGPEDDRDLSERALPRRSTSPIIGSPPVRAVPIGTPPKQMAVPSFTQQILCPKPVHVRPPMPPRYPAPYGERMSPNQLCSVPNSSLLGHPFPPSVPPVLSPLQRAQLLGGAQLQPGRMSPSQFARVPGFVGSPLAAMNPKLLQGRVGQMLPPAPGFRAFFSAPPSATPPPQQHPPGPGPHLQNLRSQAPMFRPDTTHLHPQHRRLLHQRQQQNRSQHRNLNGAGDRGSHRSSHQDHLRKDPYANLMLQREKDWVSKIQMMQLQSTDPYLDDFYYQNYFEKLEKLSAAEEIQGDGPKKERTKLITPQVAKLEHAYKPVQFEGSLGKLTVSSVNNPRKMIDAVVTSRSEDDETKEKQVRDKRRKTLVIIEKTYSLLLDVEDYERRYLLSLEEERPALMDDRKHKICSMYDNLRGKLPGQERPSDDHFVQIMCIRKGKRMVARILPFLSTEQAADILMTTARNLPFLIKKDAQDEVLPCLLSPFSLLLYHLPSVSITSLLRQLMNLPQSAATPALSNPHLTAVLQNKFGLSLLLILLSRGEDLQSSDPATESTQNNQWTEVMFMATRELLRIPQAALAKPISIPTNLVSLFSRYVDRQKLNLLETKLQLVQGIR
UniProt Q96GD0: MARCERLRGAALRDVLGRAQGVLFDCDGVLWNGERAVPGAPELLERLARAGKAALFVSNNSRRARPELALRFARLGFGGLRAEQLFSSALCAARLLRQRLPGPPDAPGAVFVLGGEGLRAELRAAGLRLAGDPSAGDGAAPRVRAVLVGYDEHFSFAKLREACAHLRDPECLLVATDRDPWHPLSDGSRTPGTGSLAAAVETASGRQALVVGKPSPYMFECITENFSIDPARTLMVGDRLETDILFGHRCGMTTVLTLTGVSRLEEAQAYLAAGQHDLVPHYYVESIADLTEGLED
UniProt Q9BUL8: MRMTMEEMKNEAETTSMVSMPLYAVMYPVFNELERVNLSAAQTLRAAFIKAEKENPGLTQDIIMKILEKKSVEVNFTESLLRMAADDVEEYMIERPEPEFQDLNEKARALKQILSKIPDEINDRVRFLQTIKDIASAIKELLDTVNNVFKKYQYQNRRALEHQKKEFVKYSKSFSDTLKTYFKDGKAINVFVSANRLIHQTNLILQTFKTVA

Columns and labels:
Assay in all cases: log2 fold change, soluble protein after heating vs DMSO (PISA); higher = thermal stabilisation; K562 cells, 10 uM, 30 min; active = over 0.2 and 3.5 SD of the protein, either way, in both replicates (recomputed)
[1] = compound: C#Cc1cccc(Nc2ncnc3cc(OCCOC)c(OCCOC)cc23)c1 [erlotinib]
How it was run: (§1)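 K562 cells at 2×10^6 cells/mL were exposed to 10 μM compound for 30 min, then aliquots were heated for 3 min across 48°C-58°C, pooled, and extracted in PBS containing 0.5% NP-40 at 4°C. The supernatant after 21,000xg for 90 min was taken as soluble protein and measured by TMTpro 16plex LC-MS/MS with channel sums equalised. Thermal stability is reported relative to control samples, with values from duplicates. Fold changes are given on a log2 scale.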

[2] = compound: C/C(=N\NC(=O)C1=CC(=CC=C1)S(=O)(=O)N2CCOCC2)/C3=C(C=CC(=C3)Cl)O
How it was run: as §1

[3] = compound: C1=CC(=C(C=C1Cl)C2=NC3=NC=CN=C3C(=N2)NC4=CC=NC=C4)F
How it was run: as §1

[4] = compound: C1=CC(=CC=C1C2=NC3=C(N2)C=C(C=C3)C(=O)N)OC4=CC=C(C=C4)Cl
How it was run: as §1

[5] = compound: C1=CC2=C(C=CC(=C2)/C=C\3/C(=O)NC(=NCC4=CC=CS4)S3)N=C1
How it was run: as §1

[6] = compound: C1=CC2=NC=CN=C2C=C1/C=C/3\C(=O)NC(=O)S3
How it was run: as §1

[7] = compound: C1=CC=C(C=C1)C2=NC(=C(N2)C3=CC=NC=C3)C4=CC(=C(C=C4)Cl)O
How it was run: as §1

[8] = compound: C1=CC=C2C(=C1)C3=NNC4=CC=CC(=C43)C2=O
How it was run: as §1

[9] = compound: C1CCN(C1)C(=O)NC2=CC=CC(=C2)NC3=NC=C(C(=N3)NCCC4=CN=CN4)Br
How it was run: as §1

[10] = compound: C1CN(CCC1(CC2=CC=C(C=C2)Cl)N)C3=NC=NC4=C3C=CN4
How it was run: as §1

| Target | log2 fold change [1] | log2 fold change [2] | log2 fold change [3] | log2 fold change [4] | log2 fold change [5] | log2 fold change [6] | log2 fold change [7] | log2 fold change [8] | log2 fold change [9] | log2 fold change [10] |
| --- | --- | --- | --- | --- | --- | --- | --- | --- | --- | --- |
| PDCD6IP (UniProt Q8WUM4) | inactive: 0.162 | inactive: 0.167 | inactive: 0.045 | inactive: -0.044 | inactive: 0.122 | inactive: 0.014 | inactive: 0.031 | inactive: 0.043 | inactive: -0.095 | inactive: -0.122 |
| PELO (UniProt Q9BRX2) | inactive: 0.153 | inactive: 0.017 | inactive: -0.108 | inactive: 0.074 | inactive: 0.105 | inactive: -0.104 | inactive: 0.079 | inactive: 0.021 | inactive: -0.097 | inactive: -0.058 |
| PDE12 (UniProt Q6L8Q7) | inactive: -0.023 | inactive: 0.018 | inactive: 0.052 | inactive: 0.027 | inactive: 0.001 | inactive: -0.008 | inactive: -0.015 | inactive: 0.054 | inactive: -0.04 | inactive: 0.026 |
| PAFAH1B2 (UniProt P68402) | inactive: 0.195 | inactive: -0.088 | inactive: 0.134 | inactive: -0.016 | inactive: -0.036 | inactive: -0.034 | inactive: 0.068 | inactive: 0.027 | inactive: 0.128 | inactive: 0.047 |
| PDF (UniProt Q9HBH1) | inactive: 0.027 | inactive: 0.032 | inactive: 0.046 | inactive: 0.065 | inactive: 0.045 | inactive: 0.033 | inactive: -0.03 | inactive: 0.02 | inactive: -0.03 | inactive: 0.03 |
| PBK (UniProt Q96KB5) | inactive: 0.103 | inactive: 0.117 | inactive: -0.054 | inactive: -0.037 | inactive: 0.083 | inactive: 0.028 | inactive: 0.067 | inactive: 0.016 | inactive: -0.052 | inactive: -0.105 |
| PARL (UniProt Q9H300) | inactive: -0.019 | inactive: 0.015 | inactive: 0.011 | inactive: -0.011 | inactive: 0.016 | inactive: 0.044 | inactive: 0.026 | inactive: -0.012 | inactive: 0.015 | inactive: 0.017 |
| PAPOLA (UniProt P51003) | inactive: -0.018 | inactive: 0.062 | inactive: 0.069 | inactive: 0.009 | inactive: 0.031 | inactive: 0.022 | inactive: 0.032 | inactive: 0.042 | inactive: -0.02 | inactive: -0.009 |
| PER3 isoform 2 (UniProt P56645) | inactive: 0.015 | inactive: 0.09 | inactive: -0.076 | inactive: 0.021 | inactive: -0.124 | inactive: 0.021 | inactive: -0.084 | inactive: 0.014 | inactive: -0.056 | inactive: 0.072 |
| PARS2 (UniProt Q7L3T8) | inactive: -0.067 | inactive: 0.021 | inactive: -0.064 | inactive: 0.013 | inactive: -0.047 | inactive: 0.03 | inactive: -0.043 | inactive: -0.006 | inactive: 0.033 | inactive: -0.087 |
| PDCD11 (UniProt Q14690) | inactive: 0.172 | inactive: -0.07 | inactive: 0.144 | inactive: 0.055 | inactive: 0.168 | inactive: 0.048 | inactive: -0.162 | inactive: 0.033 | inactive: 0.007 | inactive: 0.014 |
| PDSS2 (UniProt Q86YH6) | inactive: 0.029 | inactive: -0.011 | inactive: -0.04 | inactive: 0.012 | inactive: 0.053 | inactive: -0.025 | inactive: 0.026 | inactive: -0.006 | inactive: 0.061 | inactive: 0.073 |
| PARD6B (UniProt Q9BYG5) | inactive: 0.004 | inactive: -0.008 | inactive: -0.059 | inactive: -0.109 | inactive: 0.078 | inactive: 0.036 | inactive: 0.062 | inactive: -0.159 | inactive: -0.026 | inactive: 0.016 |
| PEF1 (UniProt Q9UBV8) | inactive: -0.053 | inactive: 0.108 | inactive: 0.079 | inactive: -0.029 | inactive: 0.134 | inactive: -0.064 | inactive: 0.109 | inactive: 0.035 | inactive: -0.008 | inactive: -0.069 |
| PAPSS1 (UniProt O43252) | inactive: 0.043 | inactive: -0.006 | inactive: 0.027 | inactive: 0.003 | inactive: 0.007 | inactive: 0.009 | inactive: -0.064 | inactive: 0.023 | inactive: 0.008 | inactive: 0.027 |
| PACSIN2 (UniProt Q9UNF0) | inactive: 0.16 | inactive: 0.141 | inactive: -0.038 | inactive: -0.014 | inactive: 0.124 | inactive: -0.009 | inactive: -0.032 | inactive: 0.025 | inactive: -0.088 | inactive: -0.071 |
| PCTP (UniProt Q9UKL6) | inactive: 0.035 | inactive: -0.04 | inactive: 0.065 | inactive: 0.046 | inactive: 0.057 | inactive: 0.076 | inactive: 0.012 | inactive: 0.002 | inactive: 0.049 | inactive: -0.035 |
| PBLD (UniProt P30039) | inactive: 0.092 | inactive: 0.08 | inactive: 0.165 | inactive: -0.042 | inactive: 0.122 | inactive: -0.132 | inactive: 0.018 | inactive: 0.025 | inactive: -0.016 | inactive: 0.087 |
| PCCB isoform 2 (UniProt P05166) | inactive: 0.018 | inactive: 0.006 | inactive: -0.016 | inactive: -0.015 | inactive: -0.024 | inactive: -0.004 | inactive: -0.022 | inactive: 0.015 | inactive: -0.015 | inactive: 0.042 |
| PECAM1 (UniProt P16284) | inactive: -0.039 | inactive: 0.072 | inactive: -0.055 | inactive: 0.057 | inactive: 0.054 | inactive: -0.024 | inactive: -0.05 | inactive: -0.133 | inactive: 0.057 | inactive: 0.021 |
| PDE4A (UniProt P27815) | inactive: 0.012 | inactive: 0.013 | inactive: 0.319 | inactive: 0.024 | inactive: 0.027 | inactive: 0.06 | inactive: -0.077 | inactive: -0.01 | inactive: 0.023 | inactive: -0.148 |
| PAFAH1B1 (UniProt P43034) | inactive: -0.011 | inactive: 0.032 | inactive: 0 | inactive: 0.008 | inactive: -0.004 | inactive: 0.005 | inactive: -0.039 | inactive: -0.021 | inactive: 0.001 | inactive: 0.01 |
| PCK2 (UniProt Q16822) | inactive: 0.025 | active: -0.224 | inactive: 0.108 | inactive: -0.009 | inactive: 0.038 | inactive: -0.016 | inactive: -0.023 | inactive: 0.072 | inactive: -0.018 | inactive: -0.001 |
| PATL1 (UniProt Q86TB9) | inactive: 0.044 | inactive: 0.13 | inactive: -0.021 | inactive: 0.048 | inactive: 0.01 | inactive: -0.233 | inactive: -0.075 | inactive: 0.029 | inactive: -0.071 | inactive: -0.052 |
| PCYT1A (UniProt P49585) | inactive: -0.014 | inactive: 0.125 | inactive: -0.03 | inactive: -0.001 | inactive: 0.019 | inactive: 0.054 | inactive: -0.09 | inactive: -0.033 | inactive: -0.043 | inactive: -0.009 |
| PAK3 isoform 3 (UniProt O75914) | inactive: 0.024 | inactive: 0.049 | inactive: 0.021 | inactive: -0.026 | inactive: -0.022 | inactive: -0.004 | inactive: 0.051 | inactive: -0.003 | inactive: 0.014 | inactive: 0.02 |
| PDK1 (UniProt Q15118) | inactive: -0.004 | inactive: 0.036 | inactive: -0.025 | inactive: 0.009 | inactive: 0.07 | inactive: 0.035 | inactive: -0.146 | inactive: 0.076 | inactive: 0.086 | inactive: -0.028 |
| PDXP (UniProt Q96GD0) | inactive: 0.011 | inactive: -0.038 | inactive: 0.007 | inactive: 0.016 | inactive: 0.024 | inactive: 0.026 | inactive: 0 | inactive: -0.013 | inactive: 0.016 | inactive: 0.026 |
| PDCD10 (UniProt Q9BUL8) | inactive: 0.018 | inactive: 0.062 | inactive: 0.041 | inactive: 0.008 | inactive: 0.052 | inactive: 0.036 | inactive: 0 | inactive: -0.003 | inactive: 0.016 | inactive: 0.048 |

An excerpt of these results, with bars between the fields.
Target | log2 fold change [1] | log2 fold change [2] | log2 fold change [3] | log2 fold change [4] | log2 fold change [5] | log2 fold change [6] | log2 fold change [7] | log2 fold change [8] | log2 fold change [9] | log2 fold change [10]
PARD6B (UniProt Q9BYG5) | inactive: 0.004 | inactive: -0.008 | inactive: -0.059 | inactive: -0.109 | inactive: 0.078 | inactive: 0.036 | inactive: 0.062 | inactive: -0.159 | inactive: -0.026 | inactive: 0.016
PEF1 (UniProt Q9UBV8) | inactive: -0.053 | inactive: 0.108 | inactive: 0.079 | inactive: -0.029 | inactive: 0.134 | inactive: -0.064 | inactive: 0.109 | inactive: 0.035 | inactive: -0.008 | inactive: -0.069
